From publication PMC5841781 come the findings set out here.

No constants are given. Whether binding was seen depends on the method and setting. For some of these results: In cells and extracts the contact can be indirect. Some binding calls cover weakened binding; strength is not graded here. Sequences can lack the tags named with a protein.

Assay [1] has as its target T1, BD-MED8 (full-length MED8 fused to the Gal4 DNA binding domain, pGBKT7-MED8) (Arabidopsis thaliana) (UniProt Q4V3C1).
T1 sequence: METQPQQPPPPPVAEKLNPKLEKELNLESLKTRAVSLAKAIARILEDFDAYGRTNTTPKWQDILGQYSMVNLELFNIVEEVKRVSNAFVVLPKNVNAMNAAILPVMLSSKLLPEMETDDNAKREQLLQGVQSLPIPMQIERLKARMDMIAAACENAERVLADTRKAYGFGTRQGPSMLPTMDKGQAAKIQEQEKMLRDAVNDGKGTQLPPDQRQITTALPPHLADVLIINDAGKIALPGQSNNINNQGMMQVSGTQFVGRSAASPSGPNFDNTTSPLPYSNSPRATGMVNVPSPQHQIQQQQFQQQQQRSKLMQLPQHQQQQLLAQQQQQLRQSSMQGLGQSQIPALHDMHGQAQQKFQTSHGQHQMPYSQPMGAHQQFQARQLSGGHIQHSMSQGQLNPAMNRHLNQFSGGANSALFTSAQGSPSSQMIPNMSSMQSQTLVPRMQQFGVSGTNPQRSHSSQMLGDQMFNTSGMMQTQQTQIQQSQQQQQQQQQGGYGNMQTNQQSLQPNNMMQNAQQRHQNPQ
The assay is described as follows: two-hybrid; screen with BD-MED8 (full-length MED8 on the Gal4 DNA binding domain) as bait; clones identified by prototrophy for His and Ade.

Assay [2] deals with T2, MED8-nLUC (nLUC-tagged MED8, in pCAMBIA1300-nLUC) (Arabidopsis thaliana) (UniProt Q4V3C1).
T2 sequence: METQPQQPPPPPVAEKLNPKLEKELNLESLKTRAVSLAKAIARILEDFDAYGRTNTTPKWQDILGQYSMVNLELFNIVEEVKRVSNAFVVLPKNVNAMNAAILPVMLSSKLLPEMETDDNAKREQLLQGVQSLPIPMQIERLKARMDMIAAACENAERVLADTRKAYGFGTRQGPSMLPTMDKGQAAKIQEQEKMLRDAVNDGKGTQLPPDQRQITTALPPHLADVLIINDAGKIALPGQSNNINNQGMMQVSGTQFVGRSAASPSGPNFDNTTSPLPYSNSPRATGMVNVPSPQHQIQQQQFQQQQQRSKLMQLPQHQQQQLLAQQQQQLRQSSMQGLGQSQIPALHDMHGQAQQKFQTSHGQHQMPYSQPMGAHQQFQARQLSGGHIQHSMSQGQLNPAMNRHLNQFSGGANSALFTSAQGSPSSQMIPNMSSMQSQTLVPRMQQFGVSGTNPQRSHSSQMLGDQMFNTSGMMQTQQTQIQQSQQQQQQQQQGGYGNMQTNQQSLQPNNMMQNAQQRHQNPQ
Kind of assay: split reporter; split-luciferase complementation (Split-LUC) by transient expression in N. benthamiana leaves; luminescence after spraying 0.5 mM luciferin.

The target of assay [3] is T1, BD-MED8 (full-length MED8 fused to the Gal4 DNA binding domain, pGBKT7-MED8) (Arabidopsis thaliana). Kind of assay: two-hybrid; Matchmaker GAL4 system, baits in pGBKT7 and preys in pGADT7 co-transformed into S. cerevisiae AH109; growth on SD/-Ade/-His/-Leu/-Trp after 3 d at 30°C.
Assay [4] has as its target T3, MED8-GFP (35Spro:MED8-GFP) (Arabidopsis thaliana) (UniProt Q4V3C1).
T3 sequence: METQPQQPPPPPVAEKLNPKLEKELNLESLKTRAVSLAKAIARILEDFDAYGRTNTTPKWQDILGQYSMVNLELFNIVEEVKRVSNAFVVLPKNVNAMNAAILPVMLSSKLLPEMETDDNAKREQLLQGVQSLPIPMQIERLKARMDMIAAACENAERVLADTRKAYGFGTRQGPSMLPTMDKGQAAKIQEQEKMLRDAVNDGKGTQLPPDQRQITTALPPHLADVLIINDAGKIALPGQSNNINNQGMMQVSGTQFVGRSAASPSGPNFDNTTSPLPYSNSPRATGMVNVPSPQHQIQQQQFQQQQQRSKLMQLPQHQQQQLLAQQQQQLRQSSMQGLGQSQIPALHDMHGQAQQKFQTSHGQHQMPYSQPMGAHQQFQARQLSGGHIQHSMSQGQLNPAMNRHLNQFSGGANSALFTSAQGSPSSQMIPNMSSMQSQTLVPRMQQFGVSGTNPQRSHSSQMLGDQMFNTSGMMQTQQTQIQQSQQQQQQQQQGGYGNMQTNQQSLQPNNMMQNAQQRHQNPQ
The assay is described as follows: co-IP; extracts of N. benthamiana leaves co-infiltrated with 35Spro:MED8-GFP and 35Spro:FAMA-HA; precipitated with GFP antibody-bound agarose beads, 1 h at 4°C; 50 mM Tris-HCl pH 7.5, 150 mM NaCl, 0.1% Triton X-100, 0.2% Nonidet P-40; blots with anti-HA and anti-GFP.

B1: clones encoding FAMA found in the yeast two-hybrid screen with BD-MED8 (protein, UniProt Q56YJ8 1-414)
chain: MDKDYSAPNFLGESSGGNDDNSSGMIDYMFNRNLQQQQKQSMPQQQQHQLSPSGFGATPFDKMNFSDVMQFADFGSKLALNQTRNQDDQETGIDPVYFLKFPVLNDKIEDHNQTQHLMPSHQTSQEGGECGGNIGNVFLEEKEDQDDDNDNNSVQLRFIGGEEEDRENKNVTKKEVKSKRKRARTSKTSEEVESQRMTHIAVERNRRKQMNEHLRVLRSLMPGSYVQRGDQASIIGGAIEFVRELEQLLQCLESQKRRRILGETGRDMTTTTTSSSSPITTVANQAQPLIITGNVTELEGGGGLREETAENKSCLADVEVKLLGFDAMIKILSRRRPGQLIKTIAALEDLHLSILHTNITTMEQTVLYSFNVKITSETRFTAEDIASSIQQIFSFIHANTNISGSSNLGNIVFT
Take B1: the binding entry in assay [1] is recorded as “binds”.

B2: cLUC-FAMA (FAMA in pCAMBIA1300-cLUC) (protein, UniProt Q56YJ8 1-414)
chain: MDKDYSAPNFLGESSGGNDDNSSGMIDYMFNRNLQQQQKQSMPQQQQHQLSPSGFGATPFDKMNFSDVMQFADFGSKLALNQTRNQDDQETGIDPVYFLKFPVLNDKIEDHNQTQHLMPSHQTSQEGGECGGNIGNVFLEEKEDQDDDNDNNSVQLRFIGGEEEDRENKNVTKKEVKSKRKRARTSKTSEEVESQRMTHIAVERNRRKQMNEHLRVLRSLMPGSYVQRGDQASIIGGAIEFVRELEQLLQCLESQKRRRILGETGRDMTTTTTSSSSPITTVANQAQPLIITGNVTELEGGGGLREETAENKSCLADVEVKLLGFDAMIKILSRRRPGQLIKTIAALEDLHLSILHTNITTMEQTVLYSFNVKITSETRFTAEDIASSIQQIFSFIHANTNISGSSNLGNIVFT
As for B2, the binding entry in assay [2] is “binds”.

B3: AD-FAMA (full-length coding sequence of FAMA in the prey vector, pGADT7-FAMA) (protein, UniProt Q56YJ8 1-414)
chain: MDKDYSAPNFLGESSGGNDDNSSGMIDYMFNRNLQQQQKQSMPQQQQHQLSPSGFGATPFDKMNFSDVMQFADFGSKLALNQTRNQDDQETGIDPVYFLKFPVLNDKIEDHNQTQHLMPSHQTSQEGGECGGNIGNVFLEEKEDQDDDNDNNSVQLRFIGGEEEDRENKNVTKKEVKSKRKRARTSKTSEEVESQRMTHIAVERNRRKQMNEHLRVLRSLMPGSYVQRGDQASIIGGAIEFVRELEQLLQCLESQKRRRILGETGRDMTTTTTSSSSPITTVANQAQPLIITGNVTELEGGGGLREETAENKSCLADVEVKLLGFDAMIKILSRRRPGQLIKTIAALEDLHLSILHTNITTMEQTVLYSFNVKITSETRFTAEDIASSIQQIFSFIHANTNISGSSNLGNIVFT
On to B3, for which the binding result in assay [3] is “binds”.

B4: FAMA-HA (35Spro:FAMA-HA) (protein, UniProt Q56YJ8 1-414)
chain: MDKDYSAPNFLGESSGGNDDNSSGMIDYMFNRNLQQQQKQSMPQQQQHQLSPSGFGATPFDKMNFSDVMQFADFGSKLALNQTRNQDDQETGIDPVYFLKFPVLNDKIEDHNQTQHLMPSHQTSQEGGECGGNIGNVFLEEKEDQDDDNDNNSVQLRFIGGEEEDRENKNVTKKEVKSKRKRARTSKTSEEVESQRMTHIAVERNRRKQMNEHLRVLRSLMPGSYVQRGDQASIIGGAIEFVRELEQLLQCLESQKRRRILGETGRDMTTTTTSSSSPITTVANQAQPLIITGNVTELEGGGGLREETAENKSCLADVEVKLLGFDAMIKILSRRRPGQLIKTIAALEDLHLSILHTNITTMEQTVLYSFNVKITSETRFTAEDIASSIQQIFSFIHANTNISGSSNLGNIVFT
For B4, the binding entry in assay [4] is “binds”.
